Our source for the binding values is article PMC5226524.

Sequences of proteins named here, by UniProt entry; tags and fusion partners are left off.
UniProt Q53EP0: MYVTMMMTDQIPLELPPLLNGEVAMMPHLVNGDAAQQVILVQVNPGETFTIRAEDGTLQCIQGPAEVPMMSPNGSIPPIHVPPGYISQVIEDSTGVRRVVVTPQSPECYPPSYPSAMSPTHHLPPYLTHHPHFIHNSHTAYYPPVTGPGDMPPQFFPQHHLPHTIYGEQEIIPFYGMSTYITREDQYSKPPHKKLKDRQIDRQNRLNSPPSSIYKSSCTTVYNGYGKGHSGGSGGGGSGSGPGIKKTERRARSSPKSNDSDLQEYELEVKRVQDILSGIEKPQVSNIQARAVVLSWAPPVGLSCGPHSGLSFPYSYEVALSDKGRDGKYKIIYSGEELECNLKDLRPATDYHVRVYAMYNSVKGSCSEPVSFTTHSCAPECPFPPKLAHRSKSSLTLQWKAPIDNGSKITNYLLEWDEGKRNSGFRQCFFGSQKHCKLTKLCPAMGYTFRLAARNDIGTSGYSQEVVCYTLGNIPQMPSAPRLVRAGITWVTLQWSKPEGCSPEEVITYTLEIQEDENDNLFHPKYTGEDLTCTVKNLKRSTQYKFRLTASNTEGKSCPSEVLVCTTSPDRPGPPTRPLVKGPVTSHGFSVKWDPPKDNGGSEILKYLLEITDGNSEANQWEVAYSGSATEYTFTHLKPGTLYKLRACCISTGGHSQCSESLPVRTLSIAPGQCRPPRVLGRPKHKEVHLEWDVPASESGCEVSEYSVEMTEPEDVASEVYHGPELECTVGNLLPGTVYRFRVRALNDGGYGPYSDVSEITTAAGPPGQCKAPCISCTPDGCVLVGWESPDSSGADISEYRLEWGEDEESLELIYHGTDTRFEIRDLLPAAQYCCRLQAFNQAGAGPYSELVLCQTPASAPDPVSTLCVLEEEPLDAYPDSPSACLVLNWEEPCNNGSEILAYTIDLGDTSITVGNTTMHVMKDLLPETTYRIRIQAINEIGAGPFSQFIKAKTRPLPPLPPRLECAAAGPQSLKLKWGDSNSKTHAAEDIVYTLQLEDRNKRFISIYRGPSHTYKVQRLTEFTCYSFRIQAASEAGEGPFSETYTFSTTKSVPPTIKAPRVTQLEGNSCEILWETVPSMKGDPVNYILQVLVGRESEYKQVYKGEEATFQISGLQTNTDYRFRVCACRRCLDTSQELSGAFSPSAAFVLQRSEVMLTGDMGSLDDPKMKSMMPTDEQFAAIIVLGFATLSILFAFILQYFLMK
UniProt P07355: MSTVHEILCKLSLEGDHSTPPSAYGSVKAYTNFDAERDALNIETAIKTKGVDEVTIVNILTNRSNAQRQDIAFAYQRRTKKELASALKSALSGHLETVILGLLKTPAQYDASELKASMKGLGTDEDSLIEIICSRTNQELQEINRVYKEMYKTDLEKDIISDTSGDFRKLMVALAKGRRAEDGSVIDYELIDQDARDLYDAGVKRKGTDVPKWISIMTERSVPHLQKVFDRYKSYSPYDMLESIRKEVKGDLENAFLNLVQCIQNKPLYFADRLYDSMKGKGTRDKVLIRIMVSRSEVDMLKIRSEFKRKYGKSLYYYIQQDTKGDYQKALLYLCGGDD

No constants are given. Whether binding was seen depends on the method and setting. Binding seen in cells or lysates may run through a third protein. Some results given as binding are weak or reduced against the parent protein; the word gives no strength.

This assay concerns the target Flag-FNDC3B, full-length (fibronectin type III domain containing 3B) (human) (UniProt Q53EP0). As to the kind of experiment: co-IP; lysates from Huh7 cells transfected with Flag-FNDC3B, IP with anti-Flag.

As for “phosphorylated annexin A2 (phosphorylated ANXA2) (from UniProt P07355 1-339)”, the binding entry is “binds”.
